The target of the assay is T1, Uhrf1-3xFLAG (endogenously tagged E3 ubiquitin protein ligase Uhrf1) (mouse (endogenous in mouse ESCs)) (UniProt Q8VDF2).
T1 sequence: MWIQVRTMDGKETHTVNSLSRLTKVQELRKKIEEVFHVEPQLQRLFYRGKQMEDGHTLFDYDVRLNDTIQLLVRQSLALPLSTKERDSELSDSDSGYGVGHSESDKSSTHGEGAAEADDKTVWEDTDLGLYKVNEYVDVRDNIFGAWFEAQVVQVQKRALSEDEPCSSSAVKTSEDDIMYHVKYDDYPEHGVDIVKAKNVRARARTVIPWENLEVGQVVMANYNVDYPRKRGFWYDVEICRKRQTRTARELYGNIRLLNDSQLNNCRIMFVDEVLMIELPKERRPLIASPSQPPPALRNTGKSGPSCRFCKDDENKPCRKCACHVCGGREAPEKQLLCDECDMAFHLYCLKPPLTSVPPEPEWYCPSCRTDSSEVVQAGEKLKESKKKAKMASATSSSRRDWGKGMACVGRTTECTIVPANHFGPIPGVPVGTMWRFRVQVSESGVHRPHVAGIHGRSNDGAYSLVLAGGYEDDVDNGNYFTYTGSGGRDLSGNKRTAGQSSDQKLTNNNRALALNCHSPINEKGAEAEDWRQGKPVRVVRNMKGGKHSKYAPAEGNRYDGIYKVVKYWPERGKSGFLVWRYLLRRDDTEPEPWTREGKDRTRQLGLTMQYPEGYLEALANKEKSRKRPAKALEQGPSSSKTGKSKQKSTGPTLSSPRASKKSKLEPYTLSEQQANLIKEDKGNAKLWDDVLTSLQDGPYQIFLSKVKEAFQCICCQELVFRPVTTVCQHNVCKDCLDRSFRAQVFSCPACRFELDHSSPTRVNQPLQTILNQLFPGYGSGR
The experiment in a line: affinity purification with mass spectrometry; rapid immunoprecipitation MS; 50 million DKO0 or TKOL Uhrf1-FLAG ESCs crosslinked with 1% formaldehyde for 8 min, sonicated; anti-Flag antibody on protein G beads overnight; 10 washes with RIPA buffer (0.5 M LiCl); compared with untagged control; three biological replicates.

Amino acid sequences for entries named in this document (tags omitted).
UniProt P37913: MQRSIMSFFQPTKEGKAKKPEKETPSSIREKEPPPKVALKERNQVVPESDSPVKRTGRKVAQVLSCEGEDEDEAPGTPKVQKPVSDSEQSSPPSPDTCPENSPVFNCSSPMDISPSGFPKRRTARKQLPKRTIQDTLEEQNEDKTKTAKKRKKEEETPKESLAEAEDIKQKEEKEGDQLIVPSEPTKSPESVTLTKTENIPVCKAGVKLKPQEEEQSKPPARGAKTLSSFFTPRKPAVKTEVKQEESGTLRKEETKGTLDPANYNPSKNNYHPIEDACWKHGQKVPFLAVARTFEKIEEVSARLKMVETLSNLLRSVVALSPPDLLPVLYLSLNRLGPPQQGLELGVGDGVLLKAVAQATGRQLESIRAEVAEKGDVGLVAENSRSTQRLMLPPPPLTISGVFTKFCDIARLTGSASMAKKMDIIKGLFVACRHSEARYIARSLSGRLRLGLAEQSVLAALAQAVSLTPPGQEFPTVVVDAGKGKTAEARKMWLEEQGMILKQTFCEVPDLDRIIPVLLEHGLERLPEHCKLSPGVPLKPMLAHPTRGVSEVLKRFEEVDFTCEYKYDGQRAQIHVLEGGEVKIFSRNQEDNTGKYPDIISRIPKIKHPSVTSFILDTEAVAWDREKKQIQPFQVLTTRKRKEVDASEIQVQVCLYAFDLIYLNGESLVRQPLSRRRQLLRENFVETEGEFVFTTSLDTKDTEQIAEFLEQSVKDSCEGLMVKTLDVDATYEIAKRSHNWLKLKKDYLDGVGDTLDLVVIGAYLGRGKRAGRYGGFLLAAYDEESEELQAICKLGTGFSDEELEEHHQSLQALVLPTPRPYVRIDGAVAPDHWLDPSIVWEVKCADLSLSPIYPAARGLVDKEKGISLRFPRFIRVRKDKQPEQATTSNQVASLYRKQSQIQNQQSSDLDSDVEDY

No constants are given. Whether binding was seen depends on the method and setting. In cells and extracts the contact can be indirect. These calls come from enrichment with a bait or labelling near it, and not all partners need be listed. Tags and fused reporters may be left off the sequences shown.

On to Lig1 (from UniProt P37913 1-916), for which the binding entry was “binds”.

The values above are taken from publication PMC8279952.
